Assay results taken from patent US20080260774A1, “Alpha-galactosyl ceramide analogs and their use as immunotherapies” (priority 2007, published 2008).
Some entries share one result that the patent states for a list of compounds. At least one structure is not confirmed: it was looked up by name or label, or the drawing left a doubt.

Tested on: tetanus toxoid (TT)
Conditions: mouse, in vivo

In the case of CCCCCCCCCCCCCCCCCCCCCCCCCC(=O)N[C@@H](CO[C@H]1O[C@H](CO)[C@H](O)[C@H](O)[C@H]1O)[C@H](O)[C@H](O)CCCCCCCCCCCCCC [C1, α-Galactosyl ceramide, reference compound], the “level of antibody after delayed boost compared with TT only” value is reported as “more than 25 fold”.
